Experimental data: PubChem BioAssay AID1224826 (NIAID, 2016)

Screen: 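Genes that change LPS-induced Tnf promoter activity in mouse macrophages when knocked down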 (primary screen)
System: RAW264.7 G9 macrophages from mouse bearing reporters for p65 (GFP) and the Tnf promoter (mCherry)
Knock-down reagent: siRNA pool against mouse genes, 100 nM
Time to read-out: 16 h of LPS stimulation, after 2 days of siRNA transfection
Treatment: bacterial lipopolysaccharide (Salmonella minnesota R595), 10 ng/ml
Measured: 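Imaged Tnf reporter mCherry in nuclei, minus background, normalised per plate to the median and expressed as robust z-scores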
Direction: Tnf reporter robust z-score: higher = stronger Tnf promoter reporter signal after LPS
Call rule: 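a well counts as active at a score of -1.3 or below (Tlr4 knock-down control median) or above 3 (raised signal); controls and wells holding fewer than 50 cells are excluded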
Calls: active = Tnf reporter clearly lowered or raised; inactive = no clear change in Tnf reporter
Here is one part, drawn at random, of about 17,000 deposited reagents. About 1,110 of all reagents (6.6%) were called active. 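Active means lowered or raised reporter signal; replicate intensities are raw and not normalised per plate.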 Further read-outs or replicates are left out here.

Depletion of Tmsb4x resulted in: Tnf reporter robust z-score 0.2; fewer than 50 cells in well enough cells in well; inactive.
For Naif1 the deposit lists Tnf reporter robust z-score 0.6; fewer than 50 cells in well enough cells in well; inactive.
Cant1 gave Tnf reporter robust z-score 0.97; fewer than 50 cells in well enough cells in well; inactive.
Silencing of Slc51a gave: Tnf reporter robust z-score -1.1; fewer than 50 cells in well enough cells in well; inactive.
Against Polr2g, the entry reads Tnf reporter robust z-score -2.11; fewer than 50 cells in well enough cells in well; active.
Dkkl1 showed Tnf reporter robust z-score 0.5; fewer than 50 cells in well enough cells in well; inactive.
Knock-down of F7 gave: Tnf reporter robust z-score 1.09; fewer than 50 cells in well enough cells in well; inactive.
Against Csk, the values are Tnf reporter robust z-score -0.8; fewer than 50 cells in well enough cells in well; inactive.
Mtfr1l showed Tnf reporter robust z-score 0.54; fewer than 50 cells in well enough cells in well; inactive.
With knock-down of Tcea3 the results were Tnf reporter robust z-score 0.36; fewer than 50 cells in well enough cells in well; inactive.

3 entries from above, reformatted.
gene symbol	Tnf reporter robust z-score	fewer than 50 cells in well	call
Polr2g	-2.11	enough cells in well	active
Dkkl1	0.5	enough cells in well	inactive
F7	1.09	enough cells in well	inactive

Further reagents:
Sbf2 gave Tnf reporter robust z-score -0.54; fewer than 50 cells in well enough cells in well; inactive.
Silencing of Peli3 resulted in: Tnf reporter robust z-score 0.09; fewer than 50 cells in well enough cells in well; inactive.
After knock-down of Zfp286, the screen gave Tnf reporter robust z-score -1.22; fewer than 50 cells in well enough cells in well; inactive.
After knock-down of Nrg1 the results were Tnf reporter robust z-score -0.58; fewer than 50 cells in well enough cells in well; inactive.
For Crbn the deposit lists Tnf reporter robust z-score 0.76; fewer than 50 cells in well enough cells in well; inactive.
Them7 showed Tnf reporter robust z-score -0.62; fewer than 50 cells in well enough cells in well; inactive.
With knock-down of Cyba the results were Tnf reporter robust z-score -0.2; fewer than 50 cells in well enough cells in well; inactive.
For Or12e7 the deposit lists Tnf reporter robust z-score 0.41; fewer than 50 cells in well enough cells in well; inactive.
With knock-down of AI463229 the results were Tnf reporter robust z-score 0.88; fewer than 50 cells in well enough cells in well; inactive.
Acat1 scored Tnf reporter robust z-score 0.04; fewer than 50 cells in well enough cells in well; inactive.
Depletion of Acp3 gave: Tnf reporter robust z-score 0.52; fewer than 50 cells in well enough cells in well; inactive.
